Laboratory results reported in PubChem BioAssay AID662 (National Center for Advancing Translational Sciences (NCATS), 2007).
Several values for one entry are separate records, joined by “and”; a condition that tells them apart may be missing. Equal values may be shown once. This is one part of the list. These are further read-outs of the screen, such as a control signal, another cell line or another target. No call is given for them. Compounds called inactive in the main read-out are mostly missing here. Potencies come from curve fits of mixed quality, noted in brackets.

Test: Cell signaling CRE-BLA (Fsk stim)
Conditions: CHO CRE-bla reporter (cAMP response element driving beta-lactamase), forskolin EC10, beta-lactamase ratio; measured here: 460 nm blue channel
Description: NIH Molecular Libraries Screening Centers Network [MLSCN]
NIH Chemical Genomics Center [NCGC]
Assay Provider: Marshall W. Nirenberg, U.S. National heart lung & blood institute
Memories persist for different lengths of time, from seconds or minutes to a lifetime. There are two kinds of memory: short-term memory (STM) and long-term memory (LTM). STM lasts for minutes to hours, which maybe mediated by modifications of molecules involved in synaptic functions. LTM lasts for days or longer, and may be due to the formation of new synapses or restructuring of existing synapses. LTM, but not STM, requires gene transcription and synthesis of proteins. CREB (cyclic-AMP Responsive Element Binding Protein) is one of the candidates plays an important role for enhancement of some types of LTM. CREB, a family of transcription factors, regulates the transcription of genes containing cAMP Responsive Elements (CRE). CRE is a nucleotide sequence often found in the promoter regions of genes that are binding sites for CREB.
Using a beta-lactamase reporter-gene under control of cAMP responsive element, a cell-based assay [CellSensor(TM) CRE-bla CHO developed by Invitrogen Corp.] was used to measure forskolin-induced signaling. Library compounds were measured for their ability to modulate positively or negatively the action of EC10 NKH 477, a water soluble forskolin, on reporter gene activity. Compounds were screened in a titration series in 1536-well format. Positive and negative modulators were identified based on the AC50 values derived from the screening data.
NCGC Assay Protocol Summary
2000 cells/5uL in Opti-MEM medium containing 0.5% dialyzed FBS, 0.1 mM NEAA, 1 mM sodium pyruvate and 10 mM HEPES was dispensed into 1536-well plates and cells were cultured at 37 degrees Celsius overnight. […] And then the plates were incubated at 37 degrees Celsius for 3 hours. 1 uL of CCF4-dye mixture was added to each well. After incubated at room temperature for 2 hours the plates were measured on an EnVision plate reader at Excitation 405nm, Emission1=460nm and Emission 2=530nm. The %Activity was determined from the ratio of 460nm/530nm.
Keywords: NIH Roadmap, MLSCN, MLSMR, qHTS, NCGC, CRE, beta-lactamase reporter-gene assay.

Compound	AC50
O=C(Nc1nccs1)c1cnccn1	0.0501 µM [falling, full curve]
Cc1c(C(=O)NCc2ccco2)sc2nc(-c3ccccc3)cn12	6.31 µM [rising, partial curve]
CCOC(=O)c1c(NC(=O)c2cccs2)sc2c1CCN(C(=O)OCC)C2	10 µM [rising, partial curve]
COc1ccc(-c2c3c(=O)n(C)c(=O)n(C)c3cn2-c2cc(OC)ccc2OC)cc1	10 µM [rising, single point]
COC(=O)[C@@H]1[C@@H]2C[C@H]3c4[nH]c5ccccc5c4CCN3C[C@@H]2CC[C@@H]1O	25.1 µM [falling, single point] and 25.1 µM [falling, partial curve, poor fit]
COc1ccc(S(=O)(=O)n2nc(OC(=O)c3ccco3)cc2N)cc1	12.6 µM [falling, single point]
CC1(C)Cc2c(sc3c2c(=N)n(Cc2ccco2)c(=O)n3Cc2ccc(F)cc2)CO1	0.794 µM [rising, full curve, poor fit]
Cc1ccc(-n2c(SCC3CCCCO3)nnc2-c2ccco2)cc1 (stereo unspecified)	0.00398 µM [falling, full curve, poor fit]
O=C(NCc1ccccc1)c1c[nH]c2ccc(S(=O)(=O)Nc3ccc4c(c3)OCCO4)cc2c1=O	5.01 µM [falling, partial curve]
COC(=O)c1cc(-c2ccc(OC)c(OC)c2)on1	12.6 µM [rising, partial curve]
CCCc1cc(-c2ccc(O)c(OCC)c2)c(C#N)c(N)n1	1.58 µM [rising, full curve]
COCCn1c(=O)c(-c2ccc(Cl)cc2)nc2cnc(OCc3ccccc3)nc21	12.6 µM [rising, partial curve, poor fit]
Cc1nn(Cc2ccccc2Cl)c(C)c1N	0.00316 µM [falling, full curve, poor fit]
CCOc1ccc(Cc2nc(C)c(CC(=O)N3CCOCC3)c(=O)[nH]2)cc1	0.158 µM [falling, full curve]
COC(=O)c1ccc(Oc2nc(C)cc(Oc3ccccc3)n2)cc1	15.8 µM [rising, single point]
Cc1ccc2nc(NC(=O)CN(C)S(=O)(=O)c3cccc4nsnc34)sc2c1	2.51 µM [rising, single point]
CN1CCN(c2nc(-c3cccc(NS(C)(=O)=O)c3)nc3ccccc23)CC1	25.1 µM [rising, single point]
COc1cc(NC(=O)c2ccco2)c(OC)cc1NC(=O)c1cc(OC)c(OC)c(OC)c1	2.51 µM [rising, full curve]
CCOC(=O)c1cc2c(=O)n3cccc(C)c3nc2n(CC2CCCO2)c1=NC(C)=O (stereo unspecified)	3.98 µM [rising, partial curve]
COC(=O)c1[nH]c2c(c1C)C(=O)CC(c1cc(OC)ccc1OC)C2 (stereo unspecified)	12.6 µM [rising, partial curve]
C=CCn1c(=O)c2ccccc2n2c(SCc3csc(-c4ccccc4)n3)nnc12	3.98 µM [rising, single point]

Compound	AC50
CCOC(=O)c1c(NC(=O)CSc2nnc(-c3ccco3)o2)sc(C(C)=O)c1C	25.1 µM [rising, single point]
CCOC(=O)c1sc(NC(=S)n2cc(C)cn2)c(C(=O)OCC)c1C	12.6 µM [rising, single point]
CC1(C)CN=C(N2CCN(c3ncnc4sc5c(c34)CCCC5)CC2)S1	0.398 µM [rising, partial curve]
O=C(c1ccco1)N1CCN(C(=O)C2CCN(S(=O)(=O)c3cccs3)CC2)CC1	0.2 µM [falling, full curve, poor fit]
COc1cccc(Cn2c(=O)c(-c3cccs3)nc3cncnc32)c1	7.94 µM [rising, partial curve]
c1nc(N2CCOCC2)c2cc(-c3ccoc3)ccc2n1	0.251 µM [falling, full curve]
CC1Cc2ccccc2N1C(=O)Cn1c(=O)oc2cc(S(=O)(=O)NC3CCCC3)ccc21 (stereo unspecified)	12.6 µM [falling, single point]
O=C(CCN1Cc2ccccc2C1)c1ccc2c(c1)OCCO2	25.1 µM [falling, single point]
O=S(=O)(Nc1ccc(N2CCCCC2)cc1)c1cccs1	5.01 µM [falling, single point]
Nc1nc(CSc2n[nH]c(-c3ccccc3)n2)nc(Nc2ccccc2)n1	1.58 µM [rising, partial curve]
N#Cc1cccc(NC(=O)CC2CCCCC2)c1	0.00398 µM [falling, full curve, poor fit]
Cc1cc(C)n(-c2nc3ccccc3nc2N2CCN(C(=O)c3ccc(F)cc3)CC2)n1	25.1 µM [rising, partial curve]
COc1ccc(-c2nc3cnc(N4CCOCC4)nc3n(Cc3cccs3)c2=O)cc1	3.16 µM [rising, full curve]
COc1ccccc1N1CCN(CCN2C(=O)c3ccccc3C(C)(C)C2=O)CC1	0.0158 µM [rising, full curve, poor fit]
O=C(NCc1ccco1)C(Cc1ccccc1)N1C(=O)C2C3C=CC(C3)C2C1=O (stereo unspecified)	3.98 µM [falling, single point]
CCc1nnc(NC(=O)CC(=O)Nc2ccccc2C(=O)O)s1	2.51 µM [rising, single point]
CCc1cc(Br)ccc1N1C(=O)C2CC=CCC2C1=O (stereo unspecified)	0.00316 µM [falling, full curve, poor fit]
CCOC(=O)c1csc(Nc2nc3ccc(F)cc3s2)n1	31.6 µM [falling, single point]
C=C1C(CCl)(CCl)C2(Cl)C(Cl)C(Cl)C1(Cl)C2(Cl)Cl (stereo unspecified)	3.98 µM [rising, partial curve]
O=c1cc(CN2CCC3(CC2)OCCO3)c2c(ccc3ccccc32)o1	5.01 µM [rising, partial curve]

As entered above:
In AC50, N#Cc1cccc(NC(=O)CC2CCCCC2)c1 has the entry 0.00398 µM [falling, full curve, poor fit]
In AC50, C=C1C(CCl)(CCl)C2(Cl)C(Cl)C(Cl)C1(Cl)C2(Cl)Cl (stereo unspecified) has the entry 3.98 µM [rising, partial curve]
In AC50, O=C(c1ccco1)N1CCN(C(=O)C2CCN(S(=O)(=O)c3cccs3)CC2)CC1 has the entry 0.2 µM [falling, full curve, poor fit]
In AC50, Cc1cc(C)n(-c2nc3ccccc3nc2N2CCN(C(=O)c3ccc(F)cc3)CC2)n1 has the entry 25.1 µM [rising, partial curve]
